For assay [1], the target named is T1, GFP-fused BOP1 (GFP:BOP1) (Arabidopsis) (UniProt F4IH25).
T1 sequence: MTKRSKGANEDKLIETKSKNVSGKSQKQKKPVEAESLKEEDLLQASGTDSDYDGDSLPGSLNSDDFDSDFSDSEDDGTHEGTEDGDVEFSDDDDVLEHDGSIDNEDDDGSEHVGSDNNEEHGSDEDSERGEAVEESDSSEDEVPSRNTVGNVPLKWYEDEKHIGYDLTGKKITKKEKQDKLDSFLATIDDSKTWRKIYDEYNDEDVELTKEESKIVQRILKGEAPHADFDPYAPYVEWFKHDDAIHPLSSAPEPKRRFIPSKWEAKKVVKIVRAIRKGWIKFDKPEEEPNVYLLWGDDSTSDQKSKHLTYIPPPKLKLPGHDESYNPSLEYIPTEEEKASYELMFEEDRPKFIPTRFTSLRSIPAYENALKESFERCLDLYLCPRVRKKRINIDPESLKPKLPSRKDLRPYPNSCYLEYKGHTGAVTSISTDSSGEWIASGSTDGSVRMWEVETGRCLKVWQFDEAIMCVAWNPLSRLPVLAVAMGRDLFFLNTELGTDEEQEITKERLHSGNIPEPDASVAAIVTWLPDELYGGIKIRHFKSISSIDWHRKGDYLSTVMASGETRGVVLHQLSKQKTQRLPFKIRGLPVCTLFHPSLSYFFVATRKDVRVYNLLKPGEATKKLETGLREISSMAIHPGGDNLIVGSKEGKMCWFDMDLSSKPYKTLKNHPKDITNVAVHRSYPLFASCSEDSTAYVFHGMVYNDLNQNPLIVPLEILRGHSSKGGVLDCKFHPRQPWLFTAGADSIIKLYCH
The experiment in a line: co-IP; PES:Flag co-expressed with GFP fusions in N. benthamiana leaves by agroinfiltration; cell extracts immunoprecipitated with anti-GFP antibodies, co-precipitated PES:Flag detected by immunoblot with anti-Flag antibodies.

Assay [2] concerns the target T2, GFP-fused WDR12 (GFP:WDR12) (Arabidopsis) (UniProt Q9LF27).
T2 sequence: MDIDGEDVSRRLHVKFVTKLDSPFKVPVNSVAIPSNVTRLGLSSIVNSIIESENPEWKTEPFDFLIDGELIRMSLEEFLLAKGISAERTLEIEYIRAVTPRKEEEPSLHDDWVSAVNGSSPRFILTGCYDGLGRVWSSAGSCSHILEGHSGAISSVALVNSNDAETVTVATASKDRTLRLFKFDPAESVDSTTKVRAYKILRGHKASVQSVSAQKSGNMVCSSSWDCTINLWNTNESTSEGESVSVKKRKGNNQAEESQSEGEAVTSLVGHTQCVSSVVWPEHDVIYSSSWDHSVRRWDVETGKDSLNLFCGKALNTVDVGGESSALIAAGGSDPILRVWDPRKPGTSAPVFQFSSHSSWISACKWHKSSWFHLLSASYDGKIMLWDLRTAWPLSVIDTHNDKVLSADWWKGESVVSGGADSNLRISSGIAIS
The description is as above.

These are yes or no findings as the source states them, for the method shown. In cells and extracts the contact can be indirect. Some results given as binding are weak or reduced against the parent protein; the word gives no strength. Where a sequence is shown, tags or fusion partners need not be part of it.

B1: Flag-fused PES (PES:Flag) (protein, UniProt Q9LYK7 1-590)
chain: MPKHYRPTGKKKEGNAARYMTRSQALKHLQVNLNLFRRLCIVKGIFPREPKKKIKGNHHTYYHVKDIAFLMHEPLLEKFREIKTYQKKVKKAKAKKNEELARLLLTRQPTYKLDRLIRERYPTFIDALRDLDDCLTMVHLFAVLPASDRENLEVKRVHNCRRLTHEWQAYISRSHALRKVFVSVKGIYYQAEIEGQKITWLTPHAIQQVFTNDVDFGVLLTFLEFYETLLAFINFKLYHSLNVKYPPILDSRLEALAADLYALSRYIDASSRGMAVEPKVDASFSSQSNDREESELRLAQLQHQLPSSEPGALMHLVADNNKEVEEDEETRVCKSLFKDLKFFLSREVPRESLQLVITAFGGMVSWEGEGAPFKEDDESITHHIIDKPSAGHLYLSRVYVQPQWIYDCVNARIILPTEKYLVGRIPPPHLSPFVDNEAEGYVPDYAETIKRLQAAARNEVLPLPGVGKEDLEDPQNLLYAGVMSRAEEAEAAKNKKKMAAQEKQYHEELKMEINGSKDVVAPVLAEGEGEESVPDAMQIAQEDADMPKVLMSRKKRKLYDAMKISQSRKRSGVEIIEQRKKRLNDTQPSS
Turning to B1, the binding result in assay [1] and in assay [2] was “binds” throughout.
